Laboratory results taken from publication PMC7092493.
These are yes or no findings as the source states them, for the method shown. Binding seen in cells or lysates may run through a third protein. Here binding means that the protein was enriched with, or labelled near, the bait; the list need not be complete. For some assays here: Sequences can lack the tags named with a protein.

What was measured:
[1] = target: T1, endogenous Codanin-1 (human (endogenous in HeLa)) (UniProt Q8IWY9); test: affinity purification with mass spectrometry; immunoprecipitation of endogenous Codanin-1 or overexpressed Flag-tagged Codanin-1 from HeLa lysate on protein A-sepharose with antibody, 4 °C, washes with PBS, MS/MS of the eluate
T1 sequence: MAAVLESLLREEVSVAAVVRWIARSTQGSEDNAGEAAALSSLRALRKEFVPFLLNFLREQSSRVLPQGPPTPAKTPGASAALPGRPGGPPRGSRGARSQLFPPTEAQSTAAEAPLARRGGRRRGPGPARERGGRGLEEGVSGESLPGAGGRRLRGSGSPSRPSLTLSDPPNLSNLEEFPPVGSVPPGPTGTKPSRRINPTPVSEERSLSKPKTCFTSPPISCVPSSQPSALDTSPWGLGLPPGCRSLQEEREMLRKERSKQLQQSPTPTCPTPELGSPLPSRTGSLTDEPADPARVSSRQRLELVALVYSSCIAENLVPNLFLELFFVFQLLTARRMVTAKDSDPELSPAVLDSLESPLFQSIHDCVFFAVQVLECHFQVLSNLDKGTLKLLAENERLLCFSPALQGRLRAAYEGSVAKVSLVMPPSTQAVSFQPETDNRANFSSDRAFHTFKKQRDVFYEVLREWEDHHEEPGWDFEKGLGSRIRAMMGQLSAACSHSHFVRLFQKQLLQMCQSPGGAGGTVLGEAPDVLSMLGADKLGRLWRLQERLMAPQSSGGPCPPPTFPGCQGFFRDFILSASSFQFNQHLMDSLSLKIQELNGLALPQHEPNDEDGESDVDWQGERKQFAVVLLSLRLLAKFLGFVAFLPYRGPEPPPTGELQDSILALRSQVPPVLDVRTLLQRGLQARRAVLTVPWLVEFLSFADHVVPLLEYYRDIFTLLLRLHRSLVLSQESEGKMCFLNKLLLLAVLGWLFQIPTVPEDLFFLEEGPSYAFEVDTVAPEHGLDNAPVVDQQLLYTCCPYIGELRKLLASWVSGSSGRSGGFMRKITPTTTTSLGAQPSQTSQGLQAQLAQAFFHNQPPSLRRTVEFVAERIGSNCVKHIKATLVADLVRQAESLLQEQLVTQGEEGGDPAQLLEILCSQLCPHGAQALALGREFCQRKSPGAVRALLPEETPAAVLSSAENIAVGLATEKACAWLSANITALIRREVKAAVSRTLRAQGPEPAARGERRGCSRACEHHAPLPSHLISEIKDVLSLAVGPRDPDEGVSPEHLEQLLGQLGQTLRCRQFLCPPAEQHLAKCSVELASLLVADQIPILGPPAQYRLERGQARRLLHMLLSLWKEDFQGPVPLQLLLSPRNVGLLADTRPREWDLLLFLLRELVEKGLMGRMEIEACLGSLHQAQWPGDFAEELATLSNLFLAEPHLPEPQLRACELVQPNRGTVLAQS

[2] = target: T2, Flag-tagged Codanin-1 (human) (UniProt Q8IWY9); test: as above
T2 sequence: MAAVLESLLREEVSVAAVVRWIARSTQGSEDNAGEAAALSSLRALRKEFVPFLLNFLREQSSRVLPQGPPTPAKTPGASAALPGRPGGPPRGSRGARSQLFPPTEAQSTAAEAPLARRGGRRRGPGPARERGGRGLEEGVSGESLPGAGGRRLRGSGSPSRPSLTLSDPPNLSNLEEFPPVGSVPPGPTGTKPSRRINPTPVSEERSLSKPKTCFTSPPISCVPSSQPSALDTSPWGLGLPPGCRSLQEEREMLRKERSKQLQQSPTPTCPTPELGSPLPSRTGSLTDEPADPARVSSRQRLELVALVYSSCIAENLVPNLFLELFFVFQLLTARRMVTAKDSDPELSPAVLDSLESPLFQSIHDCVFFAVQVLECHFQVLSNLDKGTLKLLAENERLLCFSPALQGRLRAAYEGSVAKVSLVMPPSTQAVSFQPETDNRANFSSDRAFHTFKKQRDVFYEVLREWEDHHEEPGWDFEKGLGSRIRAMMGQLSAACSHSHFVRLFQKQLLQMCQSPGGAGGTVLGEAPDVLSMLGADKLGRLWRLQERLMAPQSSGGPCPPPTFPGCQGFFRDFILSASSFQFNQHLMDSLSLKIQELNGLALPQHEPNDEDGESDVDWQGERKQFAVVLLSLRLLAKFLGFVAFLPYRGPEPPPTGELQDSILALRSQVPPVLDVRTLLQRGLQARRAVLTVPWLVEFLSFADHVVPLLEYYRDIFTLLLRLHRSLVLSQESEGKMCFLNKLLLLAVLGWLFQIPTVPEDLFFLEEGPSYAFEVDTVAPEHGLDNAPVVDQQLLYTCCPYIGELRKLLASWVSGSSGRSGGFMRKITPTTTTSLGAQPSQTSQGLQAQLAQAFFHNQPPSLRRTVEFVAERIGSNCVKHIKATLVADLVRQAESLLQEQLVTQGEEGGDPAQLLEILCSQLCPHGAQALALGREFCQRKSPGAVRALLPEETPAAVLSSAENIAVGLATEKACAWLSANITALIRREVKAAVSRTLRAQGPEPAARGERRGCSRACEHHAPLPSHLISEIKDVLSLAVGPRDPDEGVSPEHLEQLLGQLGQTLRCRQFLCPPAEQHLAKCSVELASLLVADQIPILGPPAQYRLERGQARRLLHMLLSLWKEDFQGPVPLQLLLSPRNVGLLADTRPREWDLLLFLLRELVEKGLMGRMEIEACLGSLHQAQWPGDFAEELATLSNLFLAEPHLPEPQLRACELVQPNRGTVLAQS

binding [1]: binds | binding [2]: binds
B1: C15Orf41 (endogenous) (protein, UniProt Q9Y2V0-1 1-281)
chain: MILTKAQYDEIAQCLVSVPPTRQSLRKLKQRFPSQSQATLLSIFSQEYQKHIKRTHAKHHTSEAIESYYQRYLNGVVKNGAAPVLLDLANEVDYAPSLMARLILERFLQEHEETPPSKSIINSMLRDPSQIPDGVLANQVYQCIVNDCCYGPLVDCIKHAIGHEHEVLLRDLLLEKNLSFLDEDQLRAKGYDKTPDFILQVPVAVEGHIIHWIESKASFGDECSHHAYLHDQFWSYWNRFGPGLVIYWYGFIQELDCNRERGILLKACFPTNIVTLCHSIA
